Source: the supplement of paper PMC7666118
Some of the results follow.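 Rule for the calls: active = dose-dependent thermal stabilisation significant by F-test of dose-response against flat model at 10% FDR; inactive = not significant.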

Sequences of proteins named here, by UniProt entry; tags and fusion partners are left off. A change or cut given only in a name is not applied to a line headed by its entry.
UniProt Q12874: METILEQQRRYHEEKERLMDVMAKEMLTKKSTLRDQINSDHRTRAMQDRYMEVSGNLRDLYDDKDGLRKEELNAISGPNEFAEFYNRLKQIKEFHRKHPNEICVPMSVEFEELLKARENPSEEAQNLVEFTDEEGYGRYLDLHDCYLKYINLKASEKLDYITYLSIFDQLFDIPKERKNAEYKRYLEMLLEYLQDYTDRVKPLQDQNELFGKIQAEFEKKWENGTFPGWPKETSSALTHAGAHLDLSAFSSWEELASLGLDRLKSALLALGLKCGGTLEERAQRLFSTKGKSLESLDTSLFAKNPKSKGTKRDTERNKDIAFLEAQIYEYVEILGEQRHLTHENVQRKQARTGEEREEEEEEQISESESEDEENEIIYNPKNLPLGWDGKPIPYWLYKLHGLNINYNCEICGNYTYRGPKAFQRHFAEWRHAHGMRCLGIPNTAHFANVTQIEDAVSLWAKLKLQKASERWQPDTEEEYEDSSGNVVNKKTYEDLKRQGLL
UniProt Q9BY42: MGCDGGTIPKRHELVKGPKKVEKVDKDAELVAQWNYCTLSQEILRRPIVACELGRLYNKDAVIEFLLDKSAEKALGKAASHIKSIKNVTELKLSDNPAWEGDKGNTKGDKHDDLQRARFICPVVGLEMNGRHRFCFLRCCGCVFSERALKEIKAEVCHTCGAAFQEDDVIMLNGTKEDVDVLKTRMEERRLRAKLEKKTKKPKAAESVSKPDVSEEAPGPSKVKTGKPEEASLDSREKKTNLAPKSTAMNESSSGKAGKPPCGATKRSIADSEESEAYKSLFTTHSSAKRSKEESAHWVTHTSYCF
UniProt Q9HCN8: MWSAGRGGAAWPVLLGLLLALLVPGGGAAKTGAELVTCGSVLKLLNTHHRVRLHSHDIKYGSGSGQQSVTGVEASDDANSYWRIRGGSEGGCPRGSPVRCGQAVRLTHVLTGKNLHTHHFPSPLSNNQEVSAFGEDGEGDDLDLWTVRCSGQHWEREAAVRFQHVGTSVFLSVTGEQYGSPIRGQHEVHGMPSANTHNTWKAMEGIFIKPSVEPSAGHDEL
UniProt Q9Y3B4: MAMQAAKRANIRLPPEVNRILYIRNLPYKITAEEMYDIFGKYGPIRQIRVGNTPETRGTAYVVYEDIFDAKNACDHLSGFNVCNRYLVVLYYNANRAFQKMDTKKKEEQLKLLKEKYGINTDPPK
UniProt O15541: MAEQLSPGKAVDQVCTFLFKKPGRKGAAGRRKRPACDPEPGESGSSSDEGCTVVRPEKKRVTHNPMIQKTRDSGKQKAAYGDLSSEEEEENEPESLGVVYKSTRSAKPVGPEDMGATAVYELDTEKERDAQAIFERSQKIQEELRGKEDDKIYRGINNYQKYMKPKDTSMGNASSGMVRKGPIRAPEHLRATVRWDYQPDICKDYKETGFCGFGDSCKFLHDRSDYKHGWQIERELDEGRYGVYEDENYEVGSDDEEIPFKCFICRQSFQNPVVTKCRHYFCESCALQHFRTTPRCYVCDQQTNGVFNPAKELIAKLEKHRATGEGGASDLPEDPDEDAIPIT
UniProt Q16181: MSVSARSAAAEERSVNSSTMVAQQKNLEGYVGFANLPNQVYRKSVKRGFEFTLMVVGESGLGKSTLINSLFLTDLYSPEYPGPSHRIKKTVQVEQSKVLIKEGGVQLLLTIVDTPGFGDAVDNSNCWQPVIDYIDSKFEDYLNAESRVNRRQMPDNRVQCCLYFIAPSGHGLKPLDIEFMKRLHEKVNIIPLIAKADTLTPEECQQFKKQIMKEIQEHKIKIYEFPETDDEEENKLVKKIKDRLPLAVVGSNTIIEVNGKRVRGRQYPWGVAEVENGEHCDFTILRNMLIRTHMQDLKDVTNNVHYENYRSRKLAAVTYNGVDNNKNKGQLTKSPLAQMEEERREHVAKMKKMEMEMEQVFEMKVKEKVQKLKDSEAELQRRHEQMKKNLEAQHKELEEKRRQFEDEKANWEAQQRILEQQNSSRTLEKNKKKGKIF
UniProt Q15424: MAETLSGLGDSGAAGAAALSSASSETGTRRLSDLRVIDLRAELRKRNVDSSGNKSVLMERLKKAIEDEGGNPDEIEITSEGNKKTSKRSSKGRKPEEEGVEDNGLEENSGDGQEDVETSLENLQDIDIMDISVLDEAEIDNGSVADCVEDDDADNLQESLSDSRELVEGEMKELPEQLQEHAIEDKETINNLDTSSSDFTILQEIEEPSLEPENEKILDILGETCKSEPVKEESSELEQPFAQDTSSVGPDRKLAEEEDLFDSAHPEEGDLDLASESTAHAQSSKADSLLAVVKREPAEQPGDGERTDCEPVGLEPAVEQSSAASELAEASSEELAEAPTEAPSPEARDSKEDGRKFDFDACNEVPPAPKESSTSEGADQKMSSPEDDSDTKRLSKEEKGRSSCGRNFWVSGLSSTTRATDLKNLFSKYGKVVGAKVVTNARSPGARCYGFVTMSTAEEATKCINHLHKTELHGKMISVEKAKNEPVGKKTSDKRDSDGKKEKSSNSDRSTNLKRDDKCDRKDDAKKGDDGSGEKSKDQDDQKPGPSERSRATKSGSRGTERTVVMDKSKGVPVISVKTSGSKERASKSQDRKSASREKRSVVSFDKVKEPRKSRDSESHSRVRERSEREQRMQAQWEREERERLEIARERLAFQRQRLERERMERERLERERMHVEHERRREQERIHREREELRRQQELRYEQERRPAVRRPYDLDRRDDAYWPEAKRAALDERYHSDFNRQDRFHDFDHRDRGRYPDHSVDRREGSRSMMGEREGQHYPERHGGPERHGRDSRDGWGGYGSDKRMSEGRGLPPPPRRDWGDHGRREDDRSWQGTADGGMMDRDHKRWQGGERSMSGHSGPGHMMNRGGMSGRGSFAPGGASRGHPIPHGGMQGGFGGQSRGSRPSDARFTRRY
UniProt Q9H9A7: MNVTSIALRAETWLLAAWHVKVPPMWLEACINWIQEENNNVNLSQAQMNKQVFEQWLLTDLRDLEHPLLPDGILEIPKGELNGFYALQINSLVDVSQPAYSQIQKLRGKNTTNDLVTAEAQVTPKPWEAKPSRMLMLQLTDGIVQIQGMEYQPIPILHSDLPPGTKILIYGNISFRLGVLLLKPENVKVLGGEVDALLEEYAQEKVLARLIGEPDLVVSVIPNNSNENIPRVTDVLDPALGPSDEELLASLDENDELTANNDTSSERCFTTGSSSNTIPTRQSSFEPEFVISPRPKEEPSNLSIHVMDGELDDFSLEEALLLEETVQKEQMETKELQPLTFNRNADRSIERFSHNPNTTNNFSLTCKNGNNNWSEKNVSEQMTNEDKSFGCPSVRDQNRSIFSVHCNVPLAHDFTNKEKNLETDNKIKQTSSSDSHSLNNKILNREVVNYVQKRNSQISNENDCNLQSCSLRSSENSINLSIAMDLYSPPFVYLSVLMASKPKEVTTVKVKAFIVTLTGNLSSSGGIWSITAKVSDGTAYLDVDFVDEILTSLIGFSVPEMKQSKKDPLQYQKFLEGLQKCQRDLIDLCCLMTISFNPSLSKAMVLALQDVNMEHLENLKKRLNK
UniProt Q92599: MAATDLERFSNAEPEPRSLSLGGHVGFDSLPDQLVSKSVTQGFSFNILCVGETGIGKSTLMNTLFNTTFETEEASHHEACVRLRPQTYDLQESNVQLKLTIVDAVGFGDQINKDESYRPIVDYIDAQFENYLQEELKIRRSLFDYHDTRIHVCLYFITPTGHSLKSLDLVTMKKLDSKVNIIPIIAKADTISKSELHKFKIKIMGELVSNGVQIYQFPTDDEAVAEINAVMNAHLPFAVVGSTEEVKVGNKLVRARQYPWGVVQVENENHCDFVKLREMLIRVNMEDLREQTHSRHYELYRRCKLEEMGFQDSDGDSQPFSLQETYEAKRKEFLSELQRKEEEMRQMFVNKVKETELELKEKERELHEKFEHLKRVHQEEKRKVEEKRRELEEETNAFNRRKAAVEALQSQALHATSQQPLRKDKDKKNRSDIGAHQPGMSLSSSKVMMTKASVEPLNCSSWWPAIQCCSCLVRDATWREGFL
UniProt P49247: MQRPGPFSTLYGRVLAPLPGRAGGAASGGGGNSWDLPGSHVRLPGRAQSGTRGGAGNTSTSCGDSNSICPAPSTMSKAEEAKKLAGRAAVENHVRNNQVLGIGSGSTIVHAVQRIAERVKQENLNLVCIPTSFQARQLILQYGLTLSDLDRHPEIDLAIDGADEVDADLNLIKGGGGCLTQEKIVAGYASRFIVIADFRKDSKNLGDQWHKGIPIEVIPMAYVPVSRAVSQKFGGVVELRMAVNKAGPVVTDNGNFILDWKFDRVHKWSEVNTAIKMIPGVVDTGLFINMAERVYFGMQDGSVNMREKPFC
UniProt Q8IYW5, whole entry: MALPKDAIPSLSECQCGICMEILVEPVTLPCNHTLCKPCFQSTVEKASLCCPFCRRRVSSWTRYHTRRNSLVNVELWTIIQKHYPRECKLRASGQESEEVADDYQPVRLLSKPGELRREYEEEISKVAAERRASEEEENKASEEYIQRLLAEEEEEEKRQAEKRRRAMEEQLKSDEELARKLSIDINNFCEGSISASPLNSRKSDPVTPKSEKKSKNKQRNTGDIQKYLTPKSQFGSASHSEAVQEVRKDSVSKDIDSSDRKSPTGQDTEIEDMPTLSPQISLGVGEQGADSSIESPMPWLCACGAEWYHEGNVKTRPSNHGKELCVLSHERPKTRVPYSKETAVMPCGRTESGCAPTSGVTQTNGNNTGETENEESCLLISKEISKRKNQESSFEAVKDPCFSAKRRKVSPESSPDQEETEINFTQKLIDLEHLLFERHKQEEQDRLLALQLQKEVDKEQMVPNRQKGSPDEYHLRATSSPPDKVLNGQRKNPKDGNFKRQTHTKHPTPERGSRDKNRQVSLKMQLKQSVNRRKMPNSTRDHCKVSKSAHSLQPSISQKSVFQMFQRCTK
UniProt Q15019: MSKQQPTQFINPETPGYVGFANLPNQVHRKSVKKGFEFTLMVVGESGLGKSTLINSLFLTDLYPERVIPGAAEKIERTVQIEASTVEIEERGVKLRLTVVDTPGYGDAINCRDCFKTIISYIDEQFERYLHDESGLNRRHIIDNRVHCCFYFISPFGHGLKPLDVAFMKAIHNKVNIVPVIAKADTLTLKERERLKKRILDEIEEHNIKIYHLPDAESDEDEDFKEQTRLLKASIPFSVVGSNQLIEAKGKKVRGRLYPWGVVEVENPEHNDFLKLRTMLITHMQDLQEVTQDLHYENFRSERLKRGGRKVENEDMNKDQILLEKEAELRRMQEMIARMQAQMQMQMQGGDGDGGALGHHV
UniProt Q86UA6: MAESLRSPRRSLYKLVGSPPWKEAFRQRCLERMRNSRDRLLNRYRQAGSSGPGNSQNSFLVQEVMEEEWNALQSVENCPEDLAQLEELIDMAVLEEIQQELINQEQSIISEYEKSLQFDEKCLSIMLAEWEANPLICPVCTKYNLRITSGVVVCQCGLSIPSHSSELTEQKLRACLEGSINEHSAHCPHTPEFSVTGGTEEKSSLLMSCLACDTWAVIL
UniProt Q5PRF9: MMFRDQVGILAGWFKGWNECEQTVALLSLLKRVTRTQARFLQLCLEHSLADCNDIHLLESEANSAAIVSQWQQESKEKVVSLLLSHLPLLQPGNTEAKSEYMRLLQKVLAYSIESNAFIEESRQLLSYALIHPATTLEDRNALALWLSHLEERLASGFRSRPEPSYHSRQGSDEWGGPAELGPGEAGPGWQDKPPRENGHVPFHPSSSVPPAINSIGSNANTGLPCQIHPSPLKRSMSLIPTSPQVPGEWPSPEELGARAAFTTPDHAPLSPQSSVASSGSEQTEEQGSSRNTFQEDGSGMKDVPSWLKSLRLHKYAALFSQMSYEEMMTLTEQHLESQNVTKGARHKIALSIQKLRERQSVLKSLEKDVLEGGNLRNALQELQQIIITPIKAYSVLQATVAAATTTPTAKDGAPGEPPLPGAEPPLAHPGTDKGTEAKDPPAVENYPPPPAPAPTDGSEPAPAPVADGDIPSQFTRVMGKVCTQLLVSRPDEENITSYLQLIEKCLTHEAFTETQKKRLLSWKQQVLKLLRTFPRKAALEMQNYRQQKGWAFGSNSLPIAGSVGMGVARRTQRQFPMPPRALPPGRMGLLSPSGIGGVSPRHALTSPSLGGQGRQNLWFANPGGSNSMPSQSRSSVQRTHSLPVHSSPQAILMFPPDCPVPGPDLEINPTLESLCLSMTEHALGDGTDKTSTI
UniProt Q96BH1: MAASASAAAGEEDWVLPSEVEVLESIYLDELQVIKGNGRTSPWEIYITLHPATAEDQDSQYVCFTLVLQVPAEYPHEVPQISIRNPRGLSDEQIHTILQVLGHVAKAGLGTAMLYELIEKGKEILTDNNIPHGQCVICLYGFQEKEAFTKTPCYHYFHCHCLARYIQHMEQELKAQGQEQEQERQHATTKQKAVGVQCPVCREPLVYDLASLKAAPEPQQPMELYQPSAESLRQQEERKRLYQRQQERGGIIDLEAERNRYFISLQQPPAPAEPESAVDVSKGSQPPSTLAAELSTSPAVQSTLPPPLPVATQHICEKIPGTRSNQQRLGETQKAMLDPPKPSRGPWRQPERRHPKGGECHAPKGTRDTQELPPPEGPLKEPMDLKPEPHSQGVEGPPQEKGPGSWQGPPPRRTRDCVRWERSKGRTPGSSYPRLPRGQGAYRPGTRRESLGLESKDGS

Compound: Nc1nc2c(ncn2[C@@H]2O[C@H](COP(=O)(O)OP(=O)(O)OP(=O)(O)O)[C@@H](O)[C@H]2O)c(=O)[nH]1
Assay: dose-dependent thermal stabilisation call (2D-TPP, DLPTP, 10% FDR) (binary (1 = stabilised)); higher = stabilised by the compound
Conditions: system: Jurkat gel-filtered lysate; concentration range 1-500 µM

Row | Target | dose-dependent thermal stabilisation call
1 | RNMT (UniProt O43148) | inactive: 0
2 | RIOX2 (UniProt Q8IUF8) | inactive: 0
3 | RPL37 (UniProt P61927) | inactive: 0
4 | SF3A3 (UniProt Q12874) | inactive: 0
5 | REST (UniProt Q13127) | inactive: 0
6 | RTFDC1 (UniProt Q9BY42) | inactive: 0
7 | SGTB (UniProt Q96EQ0) | inactive: 0
8 | RNH1 (UniProt P13489) | inactive: 0
9 | SDF2L1 (UniProt Q9HCN8) | inactive: 0
10 | RPL19 (UniProt P84098) | inactive: 0
11 | SF3B6 (UniProt Q9Y3B4) | inactive: 0
12 | RNF113A (UniProt O15541) | inactive: 0
13 | SCRN1 (UniProt Q12765) | inactive: 0
14 | SEPTIN7 (UniProt Q16181) | inactive: 0
15 | RFESD (UniProt Q8TAC1) | inactive: 0
16 | RPS28 (UniProt P62857) | inactive: 0
17 | SAAL1 (UniProt Q96ER3) | inactive: 0
18 | SEC24B (UniProt O95487) | inactive: 0

Retrieved one by one from above, 2 records:
Row | Target | dose-dependent thermal stabilisation call
3 | RPL37 (UniProt P61927) | inactive: 0
2 | RIOX2 (UniProt Q8IUF8) | inactive: 0

More results

Row | Target | dose-dependent thermal stabilisation call
19 | RTN3 (UniProt O95197) | inactive: 0
20 | SAFB (UniProt Q15424) | inactive: 0
21 | SFN (UniProt P31947) | inactive: 0
22 | RMI1 (UniProt Q9H9A7) | inactive: 0
23 | RPS19 (UniProt P39019) | inactive: 0
24 | SEPTIN8 (UniProt Q92599) | inactive: 0
25 | RPIA (UniProt P49247) | inactive: 0
26 | RPL26L1 (UniProt Q9UNX3) | inactive: 0
27 | RNF168 (UniProt Q8IYW5) | inactive: 0
28 | SEPSECS (UniProt Q9HD40) | inactive: 0
29 | RNASEH2B (UniProt Q5TBB1) | inactive: 0
30 | SCYL2 (UniProt Q6P3W7) | inactive: 0
31 | SF3B3 (UniProt Q15393) | inactive: 0
32 | SEPTIN2 (UniProt Q15019) | active: 1
33 | RPAIN (UniProt Q86UA6) | inactive: 0
34 | SAMD4B (UniProt Q5PRF9) | inactive: 0
35 | RNF25 (UniProt Q96BH1) | inactive: 0
